Test [1] concerns ReNCell VM. As to the kind of experiment: neuronal differentiation score (DCX+ cell fraction vs untreated, manual image score) (score (-3 to 3)); higher = more neuronal differentiation. Particulars: 2 uM, 2 weeks.
The test system of test [2] is ReNCell VM. As to the kind of experiment: dopaminergic neuron differentiation score (TH+ cell fraction vs untreated, manual image score) (score (0 to 3)); higher = more TH+ dopaminergic neuron differentiation. As to conditions: 2 uM, 4 weeks, BDNF 10 ng/ml + GDNF 10 ng/ml.

Structures are written as SMILES. Counter-ions that a name gives are not always drawn. This is one part of the list. Single values are uncertain here, since repeats match poorly.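 Cells: ReNCell VM human fetal ventral-midbrain neural progenitors, differentiated mitogen-free. Blinded raters compared doublecortin-stained (early neurons) or tyrosine hydroxylase-stained (dopaminergic neurons) images with untreated wells, where 0 means no change. After repeats and both raters were averaged, compounds scoring 2 or above became hits for retesting.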

For the compound `COc1cc2ncnc(Nc3ccc(F)c(Cl)c3)c2cc1OCCCN1CCOCC1` [Gefitinib], the neuronal differentiation score in the test on ReNCell VM [1] (library: Prestwick) was inactive: -1. In addition, the “dopaminergic neuron differentiation score” value in the test with ReNCell VM [2] (library: Prestwick) is inactive: 0.

With `CCOc1nc2cccc(C(=O)O)c2n1Cc1ccc(-c2ccccc2-c2nnn[nH]2)cc1`, in the test on ReNCell VM [1] (library: Spectrum), the neuronal differentiation score was inactive: 0. In the test with ReNCell VM [2] (library: Spectrum), the “dopaminergic neuron differentiation score” value is inactive: 0.

For `Cc1c(-c2cnccn2)ssc1=S`, in the test with ReNCell VM [1] (library: Spectrum), the neuronal differentiation score was inactive: 0. In the test with ReNCell VM [2] (library: Spectrum), the “dopaminergic neuron differentiation score” value was inactive: 0.

Turning to `C[N+](C)(C)C[C@H](O)CC(=O)[O-]`, in the test with ReNCell VM [1] (library: Spectrum), the neuronal differentiation score was inactive: 0. Moreover, in the test with ReNCell VM [2] (library: Spectrum), the “dopaminergic neuron differentiation score” value is inactive: 0.

With `O=C(Nc1ccc([N+](=O)[O-])cc1Cl)c1cc(Cl)ccc1O`, the neuronal differentiation score with ReNCell VM [1] (library: Spectrum) is inactive: 0. In the test with ReNCell VM [2] (library: Spectrum), the “dopaminergic neuron differentiation score” value was inactive: 0.

For the compound `Nc1ccn([C@@H]2CS[C@H](CO)O2)c(=O)n1`, the neuronal differentiation score in the test with ReNCell VM [1] (library: Spectrum) was inactive: 0. In the test on ReNCell VM [2] (library: Spectrum), the “dopaminergic neuron differentiation score” value is inactive: 0.

For the compound `CC(C)(O/N=C(\C(=O)N[C@@H]1C(=O)N2C(C(=O)[O-])=C(C[n+]3ccccc3)CS[C@H]12)c1csc(N)n1)C(=O)O`, in the test on ReNCell VM [1] (library: Spectrum), the neuronal differentiation score was inactive: 0. For the same compound, the “dopaminergic neuron differentiation score” value in the test on ReNCell VM [2] (library: Spectrum) is inactive: 0.

Regarding `CCCCOc1ccc(C(=O)CCN2CCCCC2)cc1` [Dyclonine hydrochloride], the neuronal differentiation score with ReNCell VM [1] (library: Prestwick) was inactive: 0. In addition, in the test with ReNCell VM [2] (library: Prestwick), the “dopaminergic neuron differentiation score” value is inactive: 1.

As to `Cc1onc(-c2c(Cl)cccc2Cl)c1C(=O)N[C@@H]1C(=O)N2[C@@H]1SC(C)(C)[C@@H]2C(=O)O` [Dicloxacillin sodium salt hydrate], the neuronal differentiation score in the test on ReNCell VM [1] (library: Prestwick) is inactive: 0. The “dopaminergic neuron differentiation score” value in the test on ReNCell VM [2] (library: Prestwick) is inactive: 0.

As for `C[N+]1(C)C[C@H](O)C[C@H]1C(=O)[O-]` [Betonicine], in the test on ReNCell VM [1] (library: Phytochemical), the neuronal differentiation score was inactive: 0. Further, in the test on ReNCell VM [2] (library: Phytochemical), the “dopaminergic neuron differentiation score” value was inactive: 0.

With `CC(C)c1c(C(=O)Nc2ccccc2)c(-c2ccccc2)c(-c2ccc(F)cc2)n1CC[C@@H](O)C[C@@H](O)CC(=O)O` [Atorvastatin], the neuronal differentiation score with ReNCell VM [1] (library: Prestwick) is inactive: 0. Further, the “dopaminergic neuron differentiation score” value in the test on ReNCell VM [2] (library: Prestwick) is inactive: 0.

Turning to `CC(C)N1CCN(c2ccc(OCC3COC(Cn4cncn4)(c4ccc(Cl)cc4Cl)O3)cc2)CC1` (configuration not stated), in the test with ReNCell VM [1] (library: Spectrum), the neuronal differentiation score was inactive: 0. In addition, the “dopaminergic neuron differentiation score” value with ReNCell VM [2] (library: Spectrum) was inactive: 0.

Turning to `C=C(CC)C(=O)c1ccc(OCC(=O)O)c(Cl)c1Cl`, in the test with ReNCell VM [1] (library: Spectrum), the neuronal differentiation score was inactive: 1. Besides, in the test on ReNCell VM [2] (library: Spectrum), the “dopaminergic neuron differentiation score” value was inactive: 0.

In the case of `C[C@@H](O)[C@H]1C(=O)N2C(C(=O)O)=C(S[C@@H]3CN[C@H](C(=O)N(C)C)C3)[C@H](C)[C@H]12`, the neuronal differentiation score in the test with ReNCell VM [1] (library: Spectrum) is inactive: 0. Besides, in the test with ReNCell VM [2] (library: Spectrum), the “dopaminergic neuron differentiation score” value is inactive: 0.

With `CC(=O)NCCCS(=O)(=O)O` [Acamprosate calcium], the neuronal differentiation score with ReNCell VM [1] (library: Prestwick) is inactive: 0. Besides, the “dopaminergic neuron differentiation score” value in the test on ReNCell VM [2] (library: Prestwick) is inactive: 0.

Consider `CC(C)n1nnc2cc(C(=O)O)ccc21`, for which, in the test on ReNCell VM [1] (library: Tocriscreen), the neuronal differentiation score is inactive: 0. Also, the “dopaminergic neuron differentiation score” value in the test on ReNCell VM [2] (library: Tocriscreen) was inactive: 0.

Regarding `Cn1c(=O)c2c(ncn2CC2OCCO2)n(C)c1=O`, in the test on ReNCell VM [1] (library: Spectrum), the neuronal differentiation score was inactive: 0. In addition, the “dopaminergic neuron differentiation score” value in the test with ReNCell VM [2] (library: Spectrum) was inactive: 0.

Consider `Cc1cc(=O)[nH]c(=S)[nH]1`, for which the neuronal differentiation score with ReNCell VM [1] (library: Spectrum) is inactive: 0. In addition, the “dopaminergic neuron differentiation score” value in the test on ReNCell VM [2] (library: Spectrum) is inactive: 0.

Regarding `CC[N+](C)(C)c1cccc(O)c1`, the neuronal differentiation score with ReNCell VM [1] (library: Spectrum) is inactive: 0. Also, the “dopaminergic neuron differentiation score” value in the test on ReNCell VM [2] (library: Spectrum) is inactive: 0.

For `CN(Cc1cnc2nc(N)nc(N)c2n1)c1ccc(C(=O)N[C@@H](CCC(=O)O)C(=O)O)cc1` [Methotrexate hydrate], the neuronal differentiation score with ReNCell VM [1] (library: LOPAC) is inactive: 0. Also, in the test on ReNCell VM [2] (library: LOPAC), the “dopaminergic neuron differentiation score” value was inactive: 0.

With `C=CC[S+]([O-])C[C@H](N)C(=O)O` (mixture of isomers), the neuronal differentiation score in the test on ReNCell VM [1] (library: Spectrum) was inactive: 0. Further, in the test with ReNCell VM [2] (library: Spectrum), the “dopaminergic neuron differentiation score” value is inactive: 0.

`Nc1ccn([C@@H]2O[C@H](CO)[C@@H](O)[C@H]2O)c(=O)n1` [Cytidine]: the neuronal differentiation score with ReNCell VM [1] (library: Phytochemical) is inactive: 0. Moreover, in the test with ReNCell VM [2] (library: Phytochemical), the “dopaminergic neuron differentiation score” value was inactive: 0.

Consider `OC[C@H]1O[C@@H](Oc2cc(O)cc(/C=C/c3ccc(O)cc3)c2)[C@H](O)[C@@H](O)[C@@H]1O`, for which the neuronal differentiation score in the test with ReNCell VM [1] (library: Spectrum) was inactive: 0. The “dopaminergic neuron differentiation score” value in the test with ReNCell VM [2] (library: Spectrum) is inactive: 0.

Consider `CC(=O)O[C@]1(C(C)=O)CC[C@H]2[C@@H]3C=C(C)C4=CC(=O)CC[C@]4(C)[C@H]3CC[C@@]21C` [Megestrol acetate], for which the neuronal differentiation score in the test on ReNCell VM [1] (library: Prestwick) is inactive: 0. In addition, the “dopaminergic neuron differentiation score” value with ReNCell VM [2] (library: Prestwick) is inactive: 0.

As for `O=C(C=Cc1ccccc1)NC(NC(=S)Nc1ccc(Cl)cc1)C(Cl)(Cl)Cl` (configuration not stated), the neuronal differentiation score in the test with ReNCell VM [1] (library: Tocriscreen) is inactive: 0. In the test on ReNCell VM [2] (library: Tocriscreen), the “dopaminergic neuron differentiation score” value was inactive: 0.

Take `COc1cc(-c2ccc(=O)[nH]n2)ccc1OC(F)F`: the neuronal differentiation score with ReNCell VM [1] (library: Spectrum) is inactive: 0. Besides, the “dopaminergic neuron differentiation score” value in the test with ReNCell VM [2] (library: Spectrum) is inactive: 0.
